# Experimental data: patent US4508657 (dated 1985)
# Experiment: general procedure: solution-phase peptide synthesis; polymeric active esters
# Conditions: whole synthesis
substance,measurement,value
Climoc-Gly-Gly-Phe-Leu-Obzl,isolated yield,74% yield
